Experimental findings from the supplement of paper PMC10849652 are described below.

Sequences of proteins named here, by UniProt entry; tags and fusion partners are left off. A change or cut given only in a name is not applied to a line headed by its entry.
UniProt Q9NRG9: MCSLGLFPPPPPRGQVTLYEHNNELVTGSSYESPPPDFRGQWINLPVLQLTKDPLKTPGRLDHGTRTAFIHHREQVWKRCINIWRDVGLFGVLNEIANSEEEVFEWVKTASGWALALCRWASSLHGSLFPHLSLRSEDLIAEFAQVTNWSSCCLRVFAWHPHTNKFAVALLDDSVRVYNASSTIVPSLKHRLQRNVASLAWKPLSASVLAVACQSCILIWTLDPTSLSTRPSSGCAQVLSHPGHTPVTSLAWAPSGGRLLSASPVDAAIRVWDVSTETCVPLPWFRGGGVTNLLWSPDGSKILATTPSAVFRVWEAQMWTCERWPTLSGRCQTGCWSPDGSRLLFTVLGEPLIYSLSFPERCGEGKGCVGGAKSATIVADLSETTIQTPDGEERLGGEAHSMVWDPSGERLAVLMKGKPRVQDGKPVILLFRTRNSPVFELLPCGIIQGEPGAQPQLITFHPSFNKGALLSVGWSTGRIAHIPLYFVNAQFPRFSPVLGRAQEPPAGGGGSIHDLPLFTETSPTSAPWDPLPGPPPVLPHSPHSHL
UniProt Q8NE71: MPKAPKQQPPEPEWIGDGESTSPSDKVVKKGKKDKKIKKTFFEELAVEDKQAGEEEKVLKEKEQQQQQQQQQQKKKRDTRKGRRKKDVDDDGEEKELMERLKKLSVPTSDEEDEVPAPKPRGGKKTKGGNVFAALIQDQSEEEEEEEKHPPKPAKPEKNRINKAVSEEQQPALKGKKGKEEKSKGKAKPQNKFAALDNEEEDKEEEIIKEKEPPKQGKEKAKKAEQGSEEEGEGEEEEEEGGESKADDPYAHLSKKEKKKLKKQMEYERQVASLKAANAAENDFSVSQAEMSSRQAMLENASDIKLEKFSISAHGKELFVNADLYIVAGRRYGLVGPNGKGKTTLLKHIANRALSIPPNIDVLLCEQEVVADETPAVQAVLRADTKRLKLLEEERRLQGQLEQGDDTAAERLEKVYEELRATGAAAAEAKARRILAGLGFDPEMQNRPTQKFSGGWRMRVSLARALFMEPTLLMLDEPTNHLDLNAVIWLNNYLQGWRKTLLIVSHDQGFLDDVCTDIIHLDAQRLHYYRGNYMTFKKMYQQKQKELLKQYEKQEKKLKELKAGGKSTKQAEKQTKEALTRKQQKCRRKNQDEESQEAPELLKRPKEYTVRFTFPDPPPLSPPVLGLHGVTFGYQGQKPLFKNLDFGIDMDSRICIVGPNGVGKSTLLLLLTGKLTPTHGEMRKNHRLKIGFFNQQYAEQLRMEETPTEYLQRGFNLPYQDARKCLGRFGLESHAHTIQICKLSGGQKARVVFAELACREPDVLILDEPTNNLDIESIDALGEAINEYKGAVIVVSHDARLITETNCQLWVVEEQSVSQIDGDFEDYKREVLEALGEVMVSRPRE
UniProt O00154: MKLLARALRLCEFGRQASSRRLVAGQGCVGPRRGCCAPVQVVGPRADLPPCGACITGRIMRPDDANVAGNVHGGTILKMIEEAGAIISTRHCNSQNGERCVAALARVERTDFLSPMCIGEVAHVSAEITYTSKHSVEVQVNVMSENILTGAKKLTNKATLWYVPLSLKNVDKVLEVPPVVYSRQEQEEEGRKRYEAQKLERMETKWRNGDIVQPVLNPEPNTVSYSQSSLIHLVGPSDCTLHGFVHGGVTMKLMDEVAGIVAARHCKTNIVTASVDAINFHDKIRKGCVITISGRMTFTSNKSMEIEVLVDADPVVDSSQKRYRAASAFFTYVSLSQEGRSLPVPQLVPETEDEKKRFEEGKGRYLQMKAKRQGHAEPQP
UniProt P00813: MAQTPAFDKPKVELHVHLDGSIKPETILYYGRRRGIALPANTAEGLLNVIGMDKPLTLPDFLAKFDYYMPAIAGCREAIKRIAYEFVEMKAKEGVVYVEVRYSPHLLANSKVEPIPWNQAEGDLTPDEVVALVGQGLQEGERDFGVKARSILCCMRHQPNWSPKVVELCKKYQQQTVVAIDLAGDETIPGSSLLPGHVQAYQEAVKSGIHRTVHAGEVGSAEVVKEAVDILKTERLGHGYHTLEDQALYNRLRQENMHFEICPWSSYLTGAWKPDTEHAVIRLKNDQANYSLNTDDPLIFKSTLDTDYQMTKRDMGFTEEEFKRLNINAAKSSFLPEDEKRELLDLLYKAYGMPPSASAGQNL
UniProt Q9H3P7: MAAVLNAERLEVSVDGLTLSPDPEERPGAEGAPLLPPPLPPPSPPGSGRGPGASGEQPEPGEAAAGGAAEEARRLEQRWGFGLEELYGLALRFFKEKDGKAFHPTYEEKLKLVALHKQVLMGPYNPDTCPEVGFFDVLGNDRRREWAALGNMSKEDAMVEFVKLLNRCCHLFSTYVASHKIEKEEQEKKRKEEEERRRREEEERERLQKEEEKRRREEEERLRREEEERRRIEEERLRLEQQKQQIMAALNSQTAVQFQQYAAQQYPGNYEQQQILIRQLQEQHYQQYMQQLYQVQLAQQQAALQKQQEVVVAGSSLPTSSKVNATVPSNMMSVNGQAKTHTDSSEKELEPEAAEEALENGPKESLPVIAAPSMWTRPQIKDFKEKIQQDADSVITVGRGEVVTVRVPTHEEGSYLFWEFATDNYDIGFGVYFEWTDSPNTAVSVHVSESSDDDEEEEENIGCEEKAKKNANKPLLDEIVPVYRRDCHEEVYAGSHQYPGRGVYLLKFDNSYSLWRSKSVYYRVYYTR
UniProt P01023, whole entry, looked up: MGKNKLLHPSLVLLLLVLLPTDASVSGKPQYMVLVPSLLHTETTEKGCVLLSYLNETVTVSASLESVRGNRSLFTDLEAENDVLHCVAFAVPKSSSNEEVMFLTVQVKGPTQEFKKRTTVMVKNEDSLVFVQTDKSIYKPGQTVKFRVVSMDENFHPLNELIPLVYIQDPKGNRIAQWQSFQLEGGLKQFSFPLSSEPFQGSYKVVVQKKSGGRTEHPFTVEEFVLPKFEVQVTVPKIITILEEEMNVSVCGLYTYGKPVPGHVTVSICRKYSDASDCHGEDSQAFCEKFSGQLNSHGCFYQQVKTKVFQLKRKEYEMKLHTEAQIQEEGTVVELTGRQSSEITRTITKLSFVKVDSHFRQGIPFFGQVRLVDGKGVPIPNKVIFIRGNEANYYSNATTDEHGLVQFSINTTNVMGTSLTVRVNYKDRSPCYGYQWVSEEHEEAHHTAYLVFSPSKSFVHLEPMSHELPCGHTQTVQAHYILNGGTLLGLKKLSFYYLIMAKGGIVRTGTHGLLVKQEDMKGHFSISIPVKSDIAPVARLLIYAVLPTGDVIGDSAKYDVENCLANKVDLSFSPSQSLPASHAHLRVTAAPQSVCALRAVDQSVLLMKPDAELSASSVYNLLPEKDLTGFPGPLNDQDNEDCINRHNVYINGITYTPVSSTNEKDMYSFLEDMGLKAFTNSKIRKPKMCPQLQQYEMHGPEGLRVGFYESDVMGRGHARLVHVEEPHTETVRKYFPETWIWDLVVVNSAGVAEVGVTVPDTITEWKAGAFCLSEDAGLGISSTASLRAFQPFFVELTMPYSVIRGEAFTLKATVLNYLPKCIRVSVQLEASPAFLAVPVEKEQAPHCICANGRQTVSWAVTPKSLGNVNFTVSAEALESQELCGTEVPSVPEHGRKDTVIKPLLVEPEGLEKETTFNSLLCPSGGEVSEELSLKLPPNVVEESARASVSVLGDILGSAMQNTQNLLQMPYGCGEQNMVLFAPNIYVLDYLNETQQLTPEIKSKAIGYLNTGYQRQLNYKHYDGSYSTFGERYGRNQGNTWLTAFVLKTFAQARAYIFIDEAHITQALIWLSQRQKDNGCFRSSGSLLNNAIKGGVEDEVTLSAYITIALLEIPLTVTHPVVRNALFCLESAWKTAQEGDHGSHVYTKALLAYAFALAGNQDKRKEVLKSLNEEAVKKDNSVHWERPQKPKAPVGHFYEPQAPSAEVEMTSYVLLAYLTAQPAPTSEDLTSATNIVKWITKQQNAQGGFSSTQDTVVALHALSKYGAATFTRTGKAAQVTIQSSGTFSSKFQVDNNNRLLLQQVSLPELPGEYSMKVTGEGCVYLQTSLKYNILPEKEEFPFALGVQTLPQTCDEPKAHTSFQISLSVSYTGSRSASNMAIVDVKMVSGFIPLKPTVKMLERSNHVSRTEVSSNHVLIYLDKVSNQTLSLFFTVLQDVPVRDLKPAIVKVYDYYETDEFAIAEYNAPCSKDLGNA
UniProt Q9NZ32, whole entry, looked up: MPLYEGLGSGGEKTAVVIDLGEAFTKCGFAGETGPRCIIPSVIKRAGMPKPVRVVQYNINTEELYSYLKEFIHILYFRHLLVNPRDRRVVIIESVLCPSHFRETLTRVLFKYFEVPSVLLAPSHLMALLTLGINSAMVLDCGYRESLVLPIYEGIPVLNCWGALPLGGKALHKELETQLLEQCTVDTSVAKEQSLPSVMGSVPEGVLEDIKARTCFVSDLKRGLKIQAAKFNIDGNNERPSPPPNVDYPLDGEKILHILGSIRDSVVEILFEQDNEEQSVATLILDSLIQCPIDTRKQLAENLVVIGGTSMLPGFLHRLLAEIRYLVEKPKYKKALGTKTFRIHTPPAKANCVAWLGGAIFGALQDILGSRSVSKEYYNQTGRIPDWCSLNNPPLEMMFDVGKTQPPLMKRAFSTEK
UniProt P55265: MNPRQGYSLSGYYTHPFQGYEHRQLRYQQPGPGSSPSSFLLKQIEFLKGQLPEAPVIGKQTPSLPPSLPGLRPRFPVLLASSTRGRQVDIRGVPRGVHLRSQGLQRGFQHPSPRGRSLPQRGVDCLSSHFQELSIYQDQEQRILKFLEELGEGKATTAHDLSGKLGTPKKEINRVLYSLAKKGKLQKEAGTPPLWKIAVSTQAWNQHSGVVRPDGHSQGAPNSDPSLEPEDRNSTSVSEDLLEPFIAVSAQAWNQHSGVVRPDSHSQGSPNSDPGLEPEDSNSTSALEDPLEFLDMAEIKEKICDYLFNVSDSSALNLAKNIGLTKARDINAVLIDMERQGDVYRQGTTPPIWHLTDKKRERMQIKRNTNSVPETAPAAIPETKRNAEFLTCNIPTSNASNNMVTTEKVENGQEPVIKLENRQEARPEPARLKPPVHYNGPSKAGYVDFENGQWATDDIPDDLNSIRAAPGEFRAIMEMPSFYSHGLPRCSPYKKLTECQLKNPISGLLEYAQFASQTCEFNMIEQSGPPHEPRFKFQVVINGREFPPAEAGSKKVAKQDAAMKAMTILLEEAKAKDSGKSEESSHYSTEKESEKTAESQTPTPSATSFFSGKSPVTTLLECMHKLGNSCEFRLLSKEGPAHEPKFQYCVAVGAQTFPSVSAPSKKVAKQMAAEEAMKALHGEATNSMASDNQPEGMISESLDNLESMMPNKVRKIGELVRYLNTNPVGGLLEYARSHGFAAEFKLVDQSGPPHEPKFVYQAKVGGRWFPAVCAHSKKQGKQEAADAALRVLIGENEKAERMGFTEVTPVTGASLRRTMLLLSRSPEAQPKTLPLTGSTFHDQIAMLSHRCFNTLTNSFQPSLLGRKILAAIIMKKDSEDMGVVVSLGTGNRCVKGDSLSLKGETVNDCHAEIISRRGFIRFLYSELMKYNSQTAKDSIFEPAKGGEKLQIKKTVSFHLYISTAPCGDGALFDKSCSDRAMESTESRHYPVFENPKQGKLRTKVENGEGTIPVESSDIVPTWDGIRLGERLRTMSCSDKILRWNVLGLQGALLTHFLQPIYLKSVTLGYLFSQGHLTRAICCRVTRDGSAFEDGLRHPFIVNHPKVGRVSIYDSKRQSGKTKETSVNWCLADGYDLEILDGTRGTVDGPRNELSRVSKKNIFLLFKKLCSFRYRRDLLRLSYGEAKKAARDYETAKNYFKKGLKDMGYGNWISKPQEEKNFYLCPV
UniProt P07311: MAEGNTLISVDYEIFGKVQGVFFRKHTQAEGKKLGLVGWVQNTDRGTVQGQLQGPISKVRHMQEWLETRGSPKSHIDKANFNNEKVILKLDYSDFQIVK
UniProt Q9BWD1: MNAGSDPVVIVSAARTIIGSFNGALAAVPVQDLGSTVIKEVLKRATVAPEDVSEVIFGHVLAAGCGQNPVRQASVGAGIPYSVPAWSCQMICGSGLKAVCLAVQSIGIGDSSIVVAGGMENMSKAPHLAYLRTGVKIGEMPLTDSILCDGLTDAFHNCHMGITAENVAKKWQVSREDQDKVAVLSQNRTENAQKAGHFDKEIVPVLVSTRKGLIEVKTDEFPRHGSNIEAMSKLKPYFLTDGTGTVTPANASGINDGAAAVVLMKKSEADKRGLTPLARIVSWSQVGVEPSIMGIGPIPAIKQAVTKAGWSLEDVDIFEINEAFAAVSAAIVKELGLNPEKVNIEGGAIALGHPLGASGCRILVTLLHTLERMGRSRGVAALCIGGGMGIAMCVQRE
UniProt Q9NUJ1: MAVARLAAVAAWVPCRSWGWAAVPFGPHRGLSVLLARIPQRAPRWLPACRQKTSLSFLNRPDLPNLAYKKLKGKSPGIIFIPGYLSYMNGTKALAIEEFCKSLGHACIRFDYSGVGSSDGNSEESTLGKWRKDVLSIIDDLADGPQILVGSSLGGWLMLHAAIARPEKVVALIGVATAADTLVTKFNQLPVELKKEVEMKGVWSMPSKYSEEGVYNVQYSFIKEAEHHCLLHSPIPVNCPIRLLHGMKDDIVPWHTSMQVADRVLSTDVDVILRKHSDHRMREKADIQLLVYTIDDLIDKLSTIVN

The list shows a part of the results.

Compound in the first assay: CC[C@@H]1C(=O)N(C)c2cnc(Nc3ccc(C(=O)NC4CCN(C)CC4)cc3OC)nc2N1C1CCCC1
In words: log2 fold change, soluble protein after heating vs DMSO (PISA); higher = thermal stabilisation; K562 cells, 10 uM, 30 min; active = over 0.2 and 3.5 SD of the protein, either way, in both replicates (recomputed). An outline of the steps:
(§1)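 K562 cells at 2×10^6 cells/mL were given 10 μM compound for 30 min. Aliquots then went through 3 min of heating across 48°C-58°C, were pooled, and were extracted in PBS with 0.5% NP-40 at 4°C, and the supernatant after 21,000xg for 90 min was quantified by TMTpro 16plex LC-MS/MS with channel sums equalised. Thermal stability relative to control samples, from duplicates, is given as log2 fold change.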
For AAAS (UniProt Q9NRG9), the log2 fold change is inactive: -0.078.

ACAD8 (UniProt Q9UKU7): the log2 fold change is inactive: 0.084.

Consider ACTA1 (UniProt P68133), for which the log2 fold change was inactive: -0.023.

As for AASDHPPT (UniProt Q9NRN7), the log2 fold change was inactive: -0.032.

In the case of ABHD13 (UniProt Q7L211), the log2 fold change is inactive: -0.048.

On to ABCF1 (UniProt Q8NE71), for which the log2 fold change was inactive: 0.1.

As to ACTR1A (UniProt P61163), the log2 fold change was inactive: 0.

ACOT7 isoform 7 (UniProt O00154): the log2 fold change is inactive: 0.013.

In the case of ADA (UniProt P00813), the log2 fold change is inactive: -0.007.

With ABCB1 (UniProt P08183), the log2 fold change is inactive: -0.009.

With ABHD17B (UniProt Q5VST6), the log2 fold change was inactive: -0.021.

ADAT3 (UniProt Q96EY9): the log2 fold change is inactive: -0.011.

Turning to ACTL8 (UniProt Q9H568), the log2 fold change was inactive: 0.159.

In the case of ACTB, A0A2R8Y793, the log2 fold change is inactive: -0.032.

Take ACTR6 (UniProt Q9GZN1): the log2 fold change was inactive: 0.018.

For the target ACOT13 (UniProt Q9NPJ3), the log2 fold change is inactive: -0.028.

ACADS (UniProt P16219): the log2 fold change was inactive: 0.064.

With ACTL6A (UniProt O96019), the log2 fold change was inactive: 0.015.

In the case of ABCB7 isoform 2 (UniProt O75027), the log2 fold change was inactive: -0.075.

ABCE1 (UniProt P61221): the log2 fold change was inactive: 0.027.

On to ACLY (UniProt P53396), for which the log2 fold change was inactive: -0.023.

With ABLIM1 (UniProt O14639), the log2 fold change is inactive: 0.

For ACOX1 isoform 2 (UniProt Q15067), the log2 fold change is inactive: 0.052.

As for ACAT1 (UniProt P24752), the log2 fold change is inactive: 0.083.

Regarding ABCE1 (UniProt H0Y990), the log2 fold change was inactive: 0.067.

Consider ACBD3 (UniProt Q9H3P7), for which the log2 fold change is inactive: 0.003.

With ACTR3 (UniProt P61158), the log2 fold change was inactive: 0.022.

For A2M (UniProt P01023), the log2 fold change is inactive: -0.034.

ACTR10 (UniProt Q9NZ32): the log2 fold change is inactive: 0.008.

As for ADAR isoform 4 (UniProt P55265), the log2 fold change was inactive: 0.118.

In the case of ACAA1 (UniProt P09110), the log2 fold change is inactive: 0.021.

In the case of ACYP1 (UniProt P07311), the log2 fold change is inactive: 0.013.

Turning to ABCC4 (UniProt O15439), the log2 fold change is inactive: 0.133.

As to ACSS2 isoform 2 (UniProt Q9NR19), the log2 fold change is inactive: -0.015.

In the case of ACAT2 (UniProt Q9BWD1), the log2 fold change was inactive: -0.019.

Turning to ABHD10 (UniProt Q9NUJ1), the log2 fold change was inactive: 0.061.

Regarding ABI1 (UniProt Q8IZP0), the log2 fold change is inactive: 0.008.

As to ACOT9 isoform 4 (UniProt Q9Y305), the log2 fold change was inactive: 0.137.

Compound in a further assay: CC[C@@H]1C(=O)N(C)c2cnc(Nc3ccc(C(=O)N[C@H]4CC[C@H](N5CCN(CC6CC6)CC5)CC4)cc3OC)nc2N1C(C)C [volasertib]
The assay is described as above. An outline of the steps:
as §1
Consider AAAS (UniProt Q9NRG9), for which the log2 fold change was inactive: -0.122.

Turning to ACAD8 (UniProt Q9UKU7), the log2 fold change was inactive: -0.111.

Turning to ACTA1 (UniProt P68133), the log2 fold change was inactive: -0.032.

For the target AASDHPPT (UniProt Q9NRN7), the log2 fold change is inactive: -0.043.

As to ABHD13 (UniProt Q7L211), the log2 fold change is inactive: 0.043.

With ABCF1 (UniProt Q8NE71), the log2 fold change was inactive: 0.003.

With ACTR1A (UniProt P61163), the log2 fold change was inactive: -0.05.

In the case of ACOT7 isoform 7 (UniProt O00154), the log2 fold change was inactive: 0.027.

On to ADA (UniProt P00813), for which the log2 fold change was inactive: 0.144.

Take ABCB1 (UniProt P08183): the log2 fold change is inactive: 0.088.

Turning to ABHD17B (UniProt Q5VST6), the log2 fold change is inactive: -0.136.

For ADAT3 (UniProt Q96EY9), the log2 fold change was inactive: 0.014.

Regarding ACTL8 (UniProt Q9H568), the log2 fold change is inactive: 0.059.

As for ACTB, A0A2R8Y793, the log2 fold change is inactive: -0.045.

For the target ACTR6 (UniProt Q9GZN1), the log2 fold change is inactive: -0.191.

Consider ACOT13 (UniProt Q9NPJ3), for which the log2 fold change is inactive: 0.042.

On to ACADS (UniProt P16219), for which the log2 fold change is inactive: -0.028.

ACTL6A (UniProt O96019): the log2 fold change is inactive: 0.014.

Take ABCB7 isoform 2 (UniProt O75027): the log2 fold change was inactive: -0.117.

On to ABCE1 (UniProt P61221), for which the log2 fold change was inactive: 0.041.

Take ACLY (UniProt P53396): the log2 fold change is inactive: -0.124.

Consider ABLIM1 (UniProt O14639), for which the log2 fold change is inactive: -0.079.

On to ACOX1 isoform 2 (UniProt Q15067), for which the log2 fold change is inactive: 0.068.

For ACAT1 (UniProt P24752), the log2 fold change is inactive: 0.087.

With ABCE1 (UniProt H0Y990), the log2 fold change is inactive: -0.002.

Regarding ACBD3 (UniProt Q9H3P7), the log2 fold change is inactive: -0.057.

As to ACTR3 (UniProt P61158), the log2 fold change was inactive: -0.033.

Take A2M (UniProt P01023): the log2 fold change is inactive: 0.028.

Consider ACTR10 (UniProt Q9NZ32), for which the log2 fold change is inactive: -0.004.

Take ADAR isoform 4 (UniProt P55265): the log2 fold change is inactive: -0.063.

Take ACAA1 (UniProt P09110): the log2 fold change was inactive: 0.044.

With ACYP1 (UniProt P07311), the log2 fold change was inactive: 0.104.

As to ABCC4 (UniProt O15439), the log2 fold change was inactive: 0.014.

As to ACSS2 isoform 2 (UniProt Q9NR19), the log2 fold change was inactive: -0.048.

On to ACAT2 (UniProt Q9BWD1), for which the log2 fold change was inactive: 0.02.

For the target ABHD10 (UniProt Q9NUJ1), the log2 fold change was inactive: 0.044.

ABI1 (UniProt Q8IZP0): the log2 fold change was inactive: -0.178.

Turning to ACOT9 isoform 4 (UniProt Q9Y305), the log2 fold change was inactive: 0.12.
